In paper PMC5155159:
For at least one entry, the source does not settle the construct or the ends of the probe. At least one result comes from cells or an extract, where the contact may be indirect.

Chains of the proteins cited; added tags and fusions are not shown. Chains listed by the source or under a name are the forms on record and can include a tag or linker.
Dicer TN (catalytically inactive), without ectopic TRBP + TRBP full length (D1-D2-D3), one chain, as listed by the source, chain 2 of 2: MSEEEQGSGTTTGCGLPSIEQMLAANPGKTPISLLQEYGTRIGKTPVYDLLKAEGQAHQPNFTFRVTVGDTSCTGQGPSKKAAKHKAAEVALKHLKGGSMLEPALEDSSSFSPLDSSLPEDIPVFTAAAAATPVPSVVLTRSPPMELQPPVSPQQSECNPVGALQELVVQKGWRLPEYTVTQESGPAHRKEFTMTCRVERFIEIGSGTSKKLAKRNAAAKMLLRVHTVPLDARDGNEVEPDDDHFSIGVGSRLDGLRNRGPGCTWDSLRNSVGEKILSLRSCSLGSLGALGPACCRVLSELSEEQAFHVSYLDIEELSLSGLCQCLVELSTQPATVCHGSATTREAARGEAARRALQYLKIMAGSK
Dicer TN (catalytically inactive), without ectopic TRBP + TRBP full length (D1-D2-D3), one chain, as listed by the source, chain 1 of 2: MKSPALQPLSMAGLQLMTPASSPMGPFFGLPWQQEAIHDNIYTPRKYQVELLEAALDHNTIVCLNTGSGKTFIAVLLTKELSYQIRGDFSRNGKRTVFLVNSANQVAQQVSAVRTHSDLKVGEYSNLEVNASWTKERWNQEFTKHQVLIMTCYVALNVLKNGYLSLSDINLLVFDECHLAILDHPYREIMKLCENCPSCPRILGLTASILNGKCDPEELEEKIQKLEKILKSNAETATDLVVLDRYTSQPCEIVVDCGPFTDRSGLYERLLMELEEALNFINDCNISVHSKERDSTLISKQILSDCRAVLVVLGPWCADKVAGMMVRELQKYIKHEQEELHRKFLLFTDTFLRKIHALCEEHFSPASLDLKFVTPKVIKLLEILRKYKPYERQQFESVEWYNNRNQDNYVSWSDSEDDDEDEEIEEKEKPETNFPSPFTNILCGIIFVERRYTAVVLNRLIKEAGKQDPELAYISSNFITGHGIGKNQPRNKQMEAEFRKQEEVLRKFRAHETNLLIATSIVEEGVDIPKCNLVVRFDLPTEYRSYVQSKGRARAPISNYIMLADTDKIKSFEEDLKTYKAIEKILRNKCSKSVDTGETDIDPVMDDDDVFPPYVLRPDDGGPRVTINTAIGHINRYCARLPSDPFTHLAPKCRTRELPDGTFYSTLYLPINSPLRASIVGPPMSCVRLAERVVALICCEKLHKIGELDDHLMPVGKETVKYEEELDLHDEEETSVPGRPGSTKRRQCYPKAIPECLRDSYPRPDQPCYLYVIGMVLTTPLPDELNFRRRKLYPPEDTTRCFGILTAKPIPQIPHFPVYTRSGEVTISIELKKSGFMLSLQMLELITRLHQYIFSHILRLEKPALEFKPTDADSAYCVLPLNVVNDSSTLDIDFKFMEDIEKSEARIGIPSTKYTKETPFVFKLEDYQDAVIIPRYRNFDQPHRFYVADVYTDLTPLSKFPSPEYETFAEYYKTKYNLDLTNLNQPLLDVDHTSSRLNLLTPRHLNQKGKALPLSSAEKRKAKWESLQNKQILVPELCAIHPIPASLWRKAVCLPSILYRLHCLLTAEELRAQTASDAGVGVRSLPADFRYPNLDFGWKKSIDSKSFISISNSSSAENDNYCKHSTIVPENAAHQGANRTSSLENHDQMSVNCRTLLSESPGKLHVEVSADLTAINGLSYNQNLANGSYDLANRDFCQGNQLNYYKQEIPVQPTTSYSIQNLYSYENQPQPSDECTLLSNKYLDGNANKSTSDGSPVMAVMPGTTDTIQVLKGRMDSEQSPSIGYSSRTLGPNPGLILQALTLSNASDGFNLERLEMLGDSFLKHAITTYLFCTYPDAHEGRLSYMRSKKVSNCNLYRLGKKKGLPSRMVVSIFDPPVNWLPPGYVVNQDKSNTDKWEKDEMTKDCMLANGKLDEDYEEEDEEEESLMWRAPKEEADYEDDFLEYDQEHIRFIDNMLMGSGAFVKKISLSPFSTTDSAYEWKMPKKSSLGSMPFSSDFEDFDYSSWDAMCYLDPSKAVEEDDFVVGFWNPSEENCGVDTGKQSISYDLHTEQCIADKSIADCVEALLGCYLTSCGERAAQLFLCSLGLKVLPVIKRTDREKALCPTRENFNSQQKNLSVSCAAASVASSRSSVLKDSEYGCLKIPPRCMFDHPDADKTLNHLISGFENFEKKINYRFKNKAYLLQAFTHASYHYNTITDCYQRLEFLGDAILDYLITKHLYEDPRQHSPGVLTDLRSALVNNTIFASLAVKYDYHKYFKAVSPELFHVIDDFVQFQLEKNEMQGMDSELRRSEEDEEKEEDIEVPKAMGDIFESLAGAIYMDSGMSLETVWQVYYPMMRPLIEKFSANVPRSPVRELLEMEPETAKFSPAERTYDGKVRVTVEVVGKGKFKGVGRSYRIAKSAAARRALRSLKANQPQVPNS

System: Dicer TN (catalytically inactive), without ectopic TRBP + TRBP full length (D1-D2-D3)
Assay: single-molecule TIRF
Details: WT or TN form not given; amine-modified U (dye); 20 mM Tris pH 8.0, 200 mM KCl, 0.2 mM EDTA, glucose oxidase/catalase oxygen scavenger, 1 mM Trolox; 200 pM labelled RNA (200 nM in Methods); Mg2+ where stated; protein in a lysate after overexpression; protein details: Flag-TEV-AP, in vivo biotinylated,Myc; label: Cy5; letters put together from the description

## UAGCAGCACGUAAAUAUUGGCGUUAAGAUUCUAAAAUUAUCUCCAGUAUUAACUGUGCUGCUGA [pre-miR-16-1]
  binding result: binds
